The other results are listed elsewhere or left out. These are raw signals, not scaled to a control.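 First-pass screen: polymyxin B was added at a level that permeabilizes the Salmonella outer membrane while sparing the inner membrane. DMSO wells, with and without polymyxin B, defined maximum growth. Because plates differed from one another, each plate's data were ranked separately and the compounds with the lowest OD600 were carried forward as hits.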
Test system: Salmonella enterica serovar Typhimurium SL1344
Test: bacterial growth OD600 after 18 h with compound and polymyxin B; higher = more bacterial growth (less inhibition)
Conditions: 50 µM, Mueller-Hinton broth

Compound | bacterial growth OD600 (polymyxin B 0.75 µg/mL) | bacterial growth OD600 (polymyxin B 1 µg/mL)
CN(C)C(=O)CCC(=O)N1CCC(n2nccc2NC(=O)Nc2ccccc2Cl)CC1 | 0.811 | –
CC(C)c1cc(C(=O)N2CCCC(C(=O)c3ccc4ccccc4c3)C2)no1 (stereo not given) | – | 0.155
Cc1ccccc1CCC1CCCN(C(=O)CN2CCCCC2=O)C1 (stereo not given) | 0.937 | –
COc1ccc(CC2=NOC(CNC(=O)c3ccccc3C(F)(F)F)C2)cc1 (stereo not given) | 0.8 | –
CCOc1ccc(CN(C)CC2CCCN(CCc3ccc(OC)cc3)C2)cc1 (stereo not given) | – | 0.858
O=C(c1cccc(-n2cnnc2)c1)N1CCOC(CCc2ccccc2)C1 (stereo not given) | 0.815 | –
O=C(CCC(F)(F)F)NC1CC(=O)N(CCc2ccccc2)C1 (stereo not given) | – | 1.03
CN(CC(=O)NC1CCCN(c2ccc(C(F)(F)F)cn2)C1)Cc1cccnc1 (stereo not given) | – | 1.03
COc1cccc(CC2(CO)CCCN(Cc3ccc(OC)c(C)c3OC)C2)c1 (stereo not given) | – | 1.19
CCC1CN(Cc2ccccc2O)Cc2cc(OC)ccc2O1 (stereo not given) | 0.737 | –
CN(Cc1ccccc1Cl)C(=O)c1cn(CCC2CCCCC2)nn1 | – | 0.824
COC(=O)C1CCN(c2nc(CN3CCCC3c3nccs3)nc3cc(OC)c(OC)cc23)CC1 (stereo not given) | 0.844 | –
O=C(c1cc(Cn2ccc3ccccc32)[nH]n1)N1CCCCCC1 | – | 0.813
O=S(=O)(Nc1cccc(N2CCC(NCC3OCCc4ccccc43)CC2)c1)c1ccc(F)cc1 (stereo not given) | 0.977 | –
CC#CCN1C(=O)NC(CCc2ccccc2)(C2CCN(Cc3cnn(-c4ccccc4)c3)CC2)C1=O (stereo not given) | 0.803 | –
CC1(C)Cc2nc(N3CCOCC3)ncc2C(NC2CCCCC2)C1 (stereo not given) | 0.836 | –
Cc1cccc(CN2CCC3(CCCN(Cc4ccccc4F)C3=O)C2)n1 (stereo not given) | – | 0.908
COc1cccc(C(=O)NC2CCCN(CCc3ccccc3)C2)c1OC (stereo not given) | 0.962 | –
COc1cccc(-c2cnc(-c3ccncc3)nc2C2CCN(Cc3cccc(F)c3F)CC2)c1 | 0.948 | –
Cc1ccc(CN(C)C(=O)c2cc(Cn3ccnc3C(C)C)[nH]n2)o1 | – | 1.12

Single records, as listed above. Values in the order: bacterial growth OD600 (polymyxin B 0.75 µg/mL)	bacterial growth OD600 (polymyxin B 1 µg/mL)
COc1cccc(-c2cnc(-c3ccncc3)nc2C2CCN(Cc3cccc(F)c3F)CC2)c1 as listed: 0.948	–
Cc1cccc(CN2CCC3(CCCN(Cc4ccccc4F)C3=O)C2)n1 (stereo not given) as listed: –	0.908
